Results published in PMC12804605.
Results are given in words; binding and its absence hold for the method and conditions named. In cells and extracts the contact can be indirect. Some binding calls cover weakened binding; strength is not graded here.

B1: NRF2 (GABPα), endogenous in mouse ovarian granulosa cells, Q00422 1-454 (protein)
chain: MTKREAEELIEIEIDGTEKAECTEESIVEQTYTPAECVSQAIDINEPIGNLKKLLEPRLQCSLDAHEICLQDIQLDPDRSLFDQGVKTDGTVQLSVQVISYQGMEPKLNILEIVKTAETVEVVIDPDAHHAEAEAHLVEEAQVITLDGTKHITTISDETSEQVTRWAAALEGYRKEQERLGIPYDPIHWSTDQVLHWVVWVMKEFSMTDIDLTTLNISGRELCSLNQEDFFQRVPRGEILWSHLELLRKYVLASQEQQMNEIVTIDQPVQIIPASVPPATPTTIKVINSSAKAAKVQRSPRISGEDRSSPGNRTGNNGQIQLWQFLLELLTDKDARDCISWVGDEGEFKLNQPELVAQKWGQRKNKPTMNYEKLSRALRYYYDGDMICKVQGKRFVYKFVCDLKTLIGYSAAELNRLVIECEQKKLARMQLHGIAQPVTAVALAATSLQADKEI
B2: NRF1, endogenous in mouse ovarian granulosa cells (protein, UniProt Q9WU00 1-503)
chain: MEEHGVTQTEHMATIEAHAVAQQVQQVHVATYTEHSMLSADEDSPSSPEDTSYDDSDILNSTAADEVTAHLAAAGPVGMAAAAAVATGKKRKRPHVFESNPSIRKRQQTRLLRKLRATLDEYTTRVGQQAIVLCISPSKPNPVFKVFGAAPLENVVRKYKSMILEDLESALAEHAPAPQEVNSELPPLTIDGIPVSVDKMTQAQLRAFIPEMLKYSTGRGKPGWGKESCKPIWWPEDIPWANVRSDVRTEEQKQRVSWTQALRTIVKNCYKQHGREDLLYAFEDQQTQTQATTTHSIAHLVPSQTVVQTFSNPDGTVSLIQVGTGATVATLADASELPTTVTVAQVNYSAVADGEVEQNWATLQGGEMTIQTTQASEATQAVASLAEAAVAASQEMQQGATVTMALNSEAAAHAVATLAEATLQGGGQIVLSGETAAAVGALTGVQDANGLVQIPVSMYQTVVTSLAQGNGPVQVAMAPVTTRISDSAVTMDGQAVEVVTLEQ

How the values were obtained:
[1] = target: T1, PGC-1α, endogenous in mouse cells (mouse (endogenous in ovarian granulosa cells and in NIH/3T3)), O70343; test: co-IP; ovarian granulosa cells of mice given vehicle, FSH, or FSH with C646, LMK-235 or SR-18292; NRF1/2 co-immunoprecipitated with PGC-1α, Western blot; conditions: remark: other sources report otherwise
T1 chain: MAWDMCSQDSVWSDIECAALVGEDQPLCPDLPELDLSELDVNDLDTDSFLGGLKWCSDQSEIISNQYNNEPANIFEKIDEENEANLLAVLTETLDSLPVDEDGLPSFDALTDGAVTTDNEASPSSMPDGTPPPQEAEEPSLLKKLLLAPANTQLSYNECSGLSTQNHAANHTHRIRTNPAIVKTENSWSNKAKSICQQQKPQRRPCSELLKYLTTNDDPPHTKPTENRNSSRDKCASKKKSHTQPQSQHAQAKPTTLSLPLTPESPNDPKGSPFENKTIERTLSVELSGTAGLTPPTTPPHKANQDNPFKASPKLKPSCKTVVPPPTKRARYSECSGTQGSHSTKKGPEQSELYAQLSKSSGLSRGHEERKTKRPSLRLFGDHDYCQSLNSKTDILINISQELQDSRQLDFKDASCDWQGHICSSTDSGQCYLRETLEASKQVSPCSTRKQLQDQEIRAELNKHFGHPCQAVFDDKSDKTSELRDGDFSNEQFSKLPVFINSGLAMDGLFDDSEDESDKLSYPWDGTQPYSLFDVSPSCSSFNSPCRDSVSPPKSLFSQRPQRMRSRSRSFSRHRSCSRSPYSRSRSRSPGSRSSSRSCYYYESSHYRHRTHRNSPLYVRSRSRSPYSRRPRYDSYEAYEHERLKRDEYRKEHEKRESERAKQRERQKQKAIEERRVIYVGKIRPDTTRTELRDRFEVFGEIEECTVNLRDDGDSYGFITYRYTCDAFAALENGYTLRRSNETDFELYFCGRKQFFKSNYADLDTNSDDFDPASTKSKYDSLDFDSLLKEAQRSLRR

[2] = target: T2, PGC-1α, endogenous in mouse cells (mouse (endogenous in ovarian granulosa cells and in NIH/3T3)) (UniProt O70343); test: as above
T2 sequence: T1 chain

binding [1]	binding [2]	Binder
binds	–	B1
–	binds	B2
